Results reported in patent US20030182691A1.
These are yes or no findings as the source states them, for the method shown. Where a sequence is shown, tags or fusion partners need not be part of it.

Target: trypsin (serine protease)
Test: phage ELISA, trypsin coated in well, anti-M13/HRP detection

B1: phage displaying the OV7 protease inhibitor (OV7 from Onchocerca volvulus expressed on the surface of filamentous phage as a fusion to the gene 3 phage coat … (protein)
chain: AKNPSKMESKTGENQDRPVLLGGWEDRDPKDEEILELLPSILMKVNEQSNDEYHLMPIKLLKVSSQVVAGVKYKMDVQVARSQCKKSSNEKVDLTKCKKLEGHPEKVMTLEVWEKPWENFMRVEILGTKEV
binding: no binding (tested: Phage Diluted 1 in 100)
